The supplement of paper PMC10849652
This is one part of the list.

Sequences of proteins named here, by UniProt entry; tags and fusion partners are left off. A change or cut given only in a name is not applied to a line headed by its entry.
UniProt Q9H5J0: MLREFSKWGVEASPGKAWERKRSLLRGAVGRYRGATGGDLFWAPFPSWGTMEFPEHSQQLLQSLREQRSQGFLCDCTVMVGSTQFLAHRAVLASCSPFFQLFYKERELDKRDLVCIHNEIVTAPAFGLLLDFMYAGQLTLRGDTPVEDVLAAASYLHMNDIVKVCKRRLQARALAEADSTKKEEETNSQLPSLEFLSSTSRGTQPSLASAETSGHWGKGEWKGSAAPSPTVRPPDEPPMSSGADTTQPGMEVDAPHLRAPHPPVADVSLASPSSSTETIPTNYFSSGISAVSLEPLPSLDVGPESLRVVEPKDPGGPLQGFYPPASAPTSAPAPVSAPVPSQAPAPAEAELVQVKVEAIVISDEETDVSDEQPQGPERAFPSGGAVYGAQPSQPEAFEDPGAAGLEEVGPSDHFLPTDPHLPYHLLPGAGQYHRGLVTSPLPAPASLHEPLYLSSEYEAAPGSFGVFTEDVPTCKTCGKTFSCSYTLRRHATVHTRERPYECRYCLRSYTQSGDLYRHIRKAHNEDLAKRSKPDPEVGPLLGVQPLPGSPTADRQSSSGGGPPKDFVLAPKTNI
UniProt O75152: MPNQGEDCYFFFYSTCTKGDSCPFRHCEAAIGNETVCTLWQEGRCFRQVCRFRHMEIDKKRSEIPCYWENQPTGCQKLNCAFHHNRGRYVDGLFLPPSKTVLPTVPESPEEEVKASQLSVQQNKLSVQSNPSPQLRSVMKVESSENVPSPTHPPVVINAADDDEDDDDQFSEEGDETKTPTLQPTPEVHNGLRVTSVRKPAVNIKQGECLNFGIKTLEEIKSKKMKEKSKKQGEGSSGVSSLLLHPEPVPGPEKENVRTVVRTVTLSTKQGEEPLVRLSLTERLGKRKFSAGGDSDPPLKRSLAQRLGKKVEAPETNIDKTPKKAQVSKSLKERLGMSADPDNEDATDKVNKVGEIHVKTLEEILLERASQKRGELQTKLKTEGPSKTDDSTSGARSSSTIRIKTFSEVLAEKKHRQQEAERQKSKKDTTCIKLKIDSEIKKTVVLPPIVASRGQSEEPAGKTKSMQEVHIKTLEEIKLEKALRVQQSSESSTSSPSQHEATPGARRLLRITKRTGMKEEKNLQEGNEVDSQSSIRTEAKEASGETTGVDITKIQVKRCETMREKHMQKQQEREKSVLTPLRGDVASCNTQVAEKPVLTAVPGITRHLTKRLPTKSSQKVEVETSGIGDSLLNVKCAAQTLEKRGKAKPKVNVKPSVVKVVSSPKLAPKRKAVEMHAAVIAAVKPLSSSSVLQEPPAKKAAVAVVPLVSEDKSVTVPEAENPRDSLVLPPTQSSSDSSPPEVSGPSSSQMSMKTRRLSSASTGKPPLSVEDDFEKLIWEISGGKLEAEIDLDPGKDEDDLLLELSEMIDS
UniProt Q9NQH7: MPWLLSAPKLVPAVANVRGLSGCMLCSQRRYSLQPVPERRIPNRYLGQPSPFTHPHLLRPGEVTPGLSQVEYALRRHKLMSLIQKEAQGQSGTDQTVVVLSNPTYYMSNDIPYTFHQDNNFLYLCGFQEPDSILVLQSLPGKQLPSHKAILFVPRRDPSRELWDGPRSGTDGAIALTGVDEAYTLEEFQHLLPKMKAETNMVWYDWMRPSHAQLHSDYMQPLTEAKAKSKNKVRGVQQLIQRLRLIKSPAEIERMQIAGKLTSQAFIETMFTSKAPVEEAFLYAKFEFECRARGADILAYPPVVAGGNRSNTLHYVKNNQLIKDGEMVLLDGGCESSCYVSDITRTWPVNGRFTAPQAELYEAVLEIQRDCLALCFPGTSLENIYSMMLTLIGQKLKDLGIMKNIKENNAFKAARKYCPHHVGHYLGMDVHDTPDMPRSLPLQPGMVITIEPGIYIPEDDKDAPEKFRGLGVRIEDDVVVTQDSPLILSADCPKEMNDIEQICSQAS
UniProt Q9C0E2: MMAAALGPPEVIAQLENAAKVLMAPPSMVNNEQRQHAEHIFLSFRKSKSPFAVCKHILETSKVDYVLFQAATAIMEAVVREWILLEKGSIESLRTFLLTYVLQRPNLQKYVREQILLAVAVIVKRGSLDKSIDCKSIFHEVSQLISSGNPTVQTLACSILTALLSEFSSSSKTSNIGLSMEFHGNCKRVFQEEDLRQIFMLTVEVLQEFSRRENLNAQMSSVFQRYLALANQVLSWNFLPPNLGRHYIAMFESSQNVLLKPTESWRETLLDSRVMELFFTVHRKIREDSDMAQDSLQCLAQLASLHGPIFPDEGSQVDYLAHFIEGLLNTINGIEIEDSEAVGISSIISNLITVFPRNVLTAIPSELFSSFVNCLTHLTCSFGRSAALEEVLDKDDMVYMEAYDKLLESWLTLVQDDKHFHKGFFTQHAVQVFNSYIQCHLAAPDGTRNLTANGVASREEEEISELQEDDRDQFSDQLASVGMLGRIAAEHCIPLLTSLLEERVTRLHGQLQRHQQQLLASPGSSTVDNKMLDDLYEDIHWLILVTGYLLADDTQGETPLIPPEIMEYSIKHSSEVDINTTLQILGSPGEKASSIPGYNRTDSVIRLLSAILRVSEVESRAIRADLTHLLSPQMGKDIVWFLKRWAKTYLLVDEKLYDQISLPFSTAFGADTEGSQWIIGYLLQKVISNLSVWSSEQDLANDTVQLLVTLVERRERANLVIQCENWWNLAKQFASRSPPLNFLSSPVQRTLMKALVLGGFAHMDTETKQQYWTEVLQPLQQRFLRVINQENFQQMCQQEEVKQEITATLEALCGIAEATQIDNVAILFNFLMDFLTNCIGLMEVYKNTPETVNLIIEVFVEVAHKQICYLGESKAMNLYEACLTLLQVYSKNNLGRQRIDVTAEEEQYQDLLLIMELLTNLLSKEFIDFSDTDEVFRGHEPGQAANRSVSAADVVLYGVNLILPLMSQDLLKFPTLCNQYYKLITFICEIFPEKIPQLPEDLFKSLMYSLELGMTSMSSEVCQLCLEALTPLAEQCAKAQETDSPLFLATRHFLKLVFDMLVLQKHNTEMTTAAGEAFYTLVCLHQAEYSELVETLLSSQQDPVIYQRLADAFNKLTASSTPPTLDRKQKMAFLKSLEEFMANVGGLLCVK
UniProt Q9ULM3: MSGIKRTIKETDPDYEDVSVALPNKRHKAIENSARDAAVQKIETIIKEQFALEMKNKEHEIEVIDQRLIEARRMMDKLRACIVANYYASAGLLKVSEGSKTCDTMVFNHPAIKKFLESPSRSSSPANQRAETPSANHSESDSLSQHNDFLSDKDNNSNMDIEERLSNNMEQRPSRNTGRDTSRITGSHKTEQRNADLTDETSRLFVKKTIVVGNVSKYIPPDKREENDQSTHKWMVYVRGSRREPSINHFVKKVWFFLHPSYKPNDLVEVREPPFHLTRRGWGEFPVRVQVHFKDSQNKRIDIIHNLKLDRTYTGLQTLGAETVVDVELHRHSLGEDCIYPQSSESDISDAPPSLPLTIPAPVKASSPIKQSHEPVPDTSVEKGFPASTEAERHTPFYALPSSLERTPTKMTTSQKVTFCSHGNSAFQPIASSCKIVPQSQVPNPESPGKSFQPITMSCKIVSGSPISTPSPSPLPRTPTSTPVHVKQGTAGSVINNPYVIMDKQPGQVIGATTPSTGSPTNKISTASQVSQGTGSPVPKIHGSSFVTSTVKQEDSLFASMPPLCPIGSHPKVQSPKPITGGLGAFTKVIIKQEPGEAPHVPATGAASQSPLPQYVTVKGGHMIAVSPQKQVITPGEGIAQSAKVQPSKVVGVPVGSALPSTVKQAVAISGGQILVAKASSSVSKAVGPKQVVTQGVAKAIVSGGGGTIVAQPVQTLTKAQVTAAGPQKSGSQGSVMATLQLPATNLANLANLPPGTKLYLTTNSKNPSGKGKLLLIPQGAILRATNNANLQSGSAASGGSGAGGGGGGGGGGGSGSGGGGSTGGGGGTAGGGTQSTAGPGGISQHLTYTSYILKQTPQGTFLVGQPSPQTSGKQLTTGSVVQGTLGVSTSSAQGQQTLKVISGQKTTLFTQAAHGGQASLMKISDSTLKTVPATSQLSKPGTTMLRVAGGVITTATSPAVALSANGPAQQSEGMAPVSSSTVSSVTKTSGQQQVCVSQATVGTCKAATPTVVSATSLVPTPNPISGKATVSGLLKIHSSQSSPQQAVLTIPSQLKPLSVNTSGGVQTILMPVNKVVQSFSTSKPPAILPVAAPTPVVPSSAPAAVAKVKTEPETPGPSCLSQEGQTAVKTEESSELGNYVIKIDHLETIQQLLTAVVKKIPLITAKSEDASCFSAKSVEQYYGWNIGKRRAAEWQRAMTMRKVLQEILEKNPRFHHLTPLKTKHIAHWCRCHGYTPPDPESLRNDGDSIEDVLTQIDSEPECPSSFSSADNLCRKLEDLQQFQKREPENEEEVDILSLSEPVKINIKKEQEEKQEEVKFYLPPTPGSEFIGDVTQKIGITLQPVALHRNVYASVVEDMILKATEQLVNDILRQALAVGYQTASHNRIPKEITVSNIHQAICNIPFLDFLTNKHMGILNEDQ
UniProt P16989, whole entry, looked up: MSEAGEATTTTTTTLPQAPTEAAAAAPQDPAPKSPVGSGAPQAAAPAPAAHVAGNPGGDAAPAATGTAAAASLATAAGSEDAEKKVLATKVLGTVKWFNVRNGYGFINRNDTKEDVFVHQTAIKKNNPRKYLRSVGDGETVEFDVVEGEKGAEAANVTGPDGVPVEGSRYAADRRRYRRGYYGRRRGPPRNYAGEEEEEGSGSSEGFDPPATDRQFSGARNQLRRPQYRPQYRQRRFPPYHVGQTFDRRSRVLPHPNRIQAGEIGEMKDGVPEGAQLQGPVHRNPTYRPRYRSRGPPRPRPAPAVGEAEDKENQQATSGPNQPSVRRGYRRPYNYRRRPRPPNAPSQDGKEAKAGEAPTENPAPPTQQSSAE
UniProt Q96KR1: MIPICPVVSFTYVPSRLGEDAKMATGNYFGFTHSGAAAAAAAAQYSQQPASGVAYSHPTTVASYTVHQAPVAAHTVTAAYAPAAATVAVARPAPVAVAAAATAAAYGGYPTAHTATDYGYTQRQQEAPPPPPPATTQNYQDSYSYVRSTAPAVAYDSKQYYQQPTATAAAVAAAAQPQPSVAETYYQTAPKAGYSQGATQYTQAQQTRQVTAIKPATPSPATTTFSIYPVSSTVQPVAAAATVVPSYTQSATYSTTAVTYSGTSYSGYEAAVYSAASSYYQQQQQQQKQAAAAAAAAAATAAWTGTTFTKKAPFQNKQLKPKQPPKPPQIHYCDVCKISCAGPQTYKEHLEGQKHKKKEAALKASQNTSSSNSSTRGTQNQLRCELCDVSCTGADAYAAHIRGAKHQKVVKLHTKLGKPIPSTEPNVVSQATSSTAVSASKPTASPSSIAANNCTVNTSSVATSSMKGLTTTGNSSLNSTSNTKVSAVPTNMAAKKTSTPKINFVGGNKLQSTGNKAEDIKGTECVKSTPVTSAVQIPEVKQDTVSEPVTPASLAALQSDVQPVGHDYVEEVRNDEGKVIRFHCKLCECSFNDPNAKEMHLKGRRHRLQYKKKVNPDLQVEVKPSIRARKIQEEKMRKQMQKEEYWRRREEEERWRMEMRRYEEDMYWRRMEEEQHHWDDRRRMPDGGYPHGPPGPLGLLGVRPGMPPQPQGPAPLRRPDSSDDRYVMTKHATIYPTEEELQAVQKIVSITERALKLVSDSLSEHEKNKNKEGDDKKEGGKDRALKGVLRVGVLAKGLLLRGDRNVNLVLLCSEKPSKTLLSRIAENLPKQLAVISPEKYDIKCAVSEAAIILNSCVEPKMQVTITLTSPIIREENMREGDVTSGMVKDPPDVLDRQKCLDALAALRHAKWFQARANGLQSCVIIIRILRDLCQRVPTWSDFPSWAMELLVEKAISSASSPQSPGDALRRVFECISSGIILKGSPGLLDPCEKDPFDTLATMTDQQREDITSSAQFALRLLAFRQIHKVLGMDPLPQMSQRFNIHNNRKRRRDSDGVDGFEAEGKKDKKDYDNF
UniProt O95159: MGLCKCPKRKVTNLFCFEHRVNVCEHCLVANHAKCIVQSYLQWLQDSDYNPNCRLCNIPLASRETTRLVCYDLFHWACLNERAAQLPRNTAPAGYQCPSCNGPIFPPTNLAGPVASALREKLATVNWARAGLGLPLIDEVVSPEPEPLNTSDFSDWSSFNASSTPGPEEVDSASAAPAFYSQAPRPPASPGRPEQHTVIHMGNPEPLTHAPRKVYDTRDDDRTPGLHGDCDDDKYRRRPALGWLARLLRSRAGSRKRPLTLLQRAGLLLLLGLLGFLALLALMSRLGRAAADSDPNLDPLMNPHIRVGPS
UniProt Q13426: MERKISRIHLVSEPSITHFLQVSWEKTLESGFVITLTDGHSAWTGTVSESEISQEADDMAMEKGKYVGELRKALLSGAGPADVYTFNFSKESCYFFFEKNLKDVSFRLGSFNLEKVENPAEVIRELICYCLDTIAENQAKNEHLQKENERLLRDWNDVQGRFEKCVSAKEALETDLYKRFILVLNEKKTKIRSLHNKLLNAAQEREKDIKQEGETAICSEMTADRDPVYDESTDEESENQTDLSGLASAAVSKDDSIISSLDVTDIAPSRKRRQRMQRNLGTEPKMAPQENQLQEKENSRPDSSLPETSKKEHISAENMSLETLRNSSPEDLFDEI

Experiments:
Test in all cases: log2 fold change, soluble protein after heating vs DMSO (PISA); higher = thermal stabilisation; K562 lysate, 10 uM; active = over 0.2 and 3.5 SD of the protein, either way, in both replicates (recomputed)
erlotinib = compound: C#Cc1cccc(Nc2ncnc3cc(OCCOC)c(OCCOC)cc23)c1 [erlotinib]
Procedure, shortened: (§1)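 Following dounce homogenisation of K562 pellets in PBS pH 7.4 with 1 mM MgCl2, crude extract at 1 mg/mL protein was incubated for 30 min with 10 μM compound. Aliquots were then heated for 3 min over 48°C-58°C and pooled, NP-40 was added to 0.5% at 4°C, and soluble protein was recovered as the supernatant at 21,000xg for 90 min. Channel-sum-equalised TMTpro 16plex LC-MS/MS quantified this protein. Each value, from duplicates, is a log-two fold change in thermal stability relative to solvent controls.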

[1] = compound: C/C(=N\NC(=O)C1=CC(=CC=C1)S(=O)(=O)N2CCOCC2)/C3=C(C=CC(=C3)Cl)O
Procedure, shortened: as §1

[2] = compound: C1=CC(=CC=C1C2=NC3=C(N2)C=C(C=C3)C(=O)N)OC4=CC=C(C=C4)Cl
Procedure, shortened: as §1

[3] = compound: C1=CC2=C(C=CC(=C2)/C=C\3/C(=O)NC(=NCC4=CC=CS4)S3)N=C1
Procedure, shortened: as §1

[4] = compound: C1=CC2=NC=CN=C2C=C1/C=C/3\C(=O)NC(=O)S3
Procedure, shortened: as §1

[5] = compound: C1=CC=C(C=C1)C2=NC(=C(N2)C3=CC=NC=C3)C4=CC(=C(C=C4)Cl)O
Procedure, shortened: as §1

[6] = compound: C1=CC=C2C(=C1)C3=NNC4=CC=CC(=C43)C2=O
Procedure, shortened: as §1

[7] = compound: C1CCN(C1)C(=O)NC2=CC=CC(=C2)NC3=NC=C(C(=N3)NCCC4=CN=CN4)Br
Procedure, shortened: as §1

[8] = compound: C1CN(CCC1(CC2=CC=C(C=C2)Cl)N)C3=NC=NC4=C3C=CN4
Procedure, shortened: as §1

IRAK-1-4 Inhibitor I = compound: C1COCCN1CCN2C3=CC=CC=C3N=C2NC(=O)C4=CC(=CC=C4)[N+](=O)[O-] [IRAK-1-4 Inhibitor I]
Procedure, shortened: as §1

Measured: log2 fold change

YIPF5 isoform 3 (UniProt Q969M3)
inactive: erlotinib -0.047 | [1] 0.089 | [2] -0.036 | [3] -0.067 | [4] -0.019 | [5] -0.065 | [6] -0.033 | [7] 0.004 | [8] -0.016 | IRAK-1-4 Inhibitor I 0.032

YRDC (UniProt Q86U90)
inactive: erlotinib 0.009 | [1] 0.03 | [2] -0.001 | [3] -0.018 | [4] -0.021 | [5] 0.036 | [6] 0.081 | [7] -0.065 | [8] 0.006 | IRAK-1-4 Inhibitor I -0.02

ZBTB3 (UniProt Q9H5J0)
inactive: erlotinib 0.037 | [1] 0.09 | [2] -0.014 | [3] -0.057 | [4] -0.013 | [5] 0.053 | [6] 0.146 | [7] 0 | [8] -0.032 | IRAK-1-4 Inhibitor I -0.019

XRCC6 (UniProt P12956)
inactive: erlotinib 0.004 | [1] -0.02 | [2] -0.016 | [3] -0.01 | [4] 0.009 | [5] 0.007 | [6] -0.014 | [7] -0.003 | [8] 0.008 | IRAK-1-4 Inhibitor I -0.006

ZFYVE28 (UniProt Q9HCC9)
inactive: erlotinib -0.026 | [1] -0.201 | [2] 0.012 | [3] 0.021 | [4] -0.157 | [5] -0.026 | [6] -0.056 | [7] 0.055 | [8] 0.033 | IRAK-1-4 Inhibitor I 0.04

ZC3H11A (UniProt O75152)
inactive: erlotinib 0.021 | [1] -0.048 | [2] -0.027 | [3] 0.004 | [4] -0.048 | [5] 0.029 | [6] -0.02 | [7] -0.011 | [8] -0.003 | IRAK-1-4 Inhibitor I -0.012

XPNPEP3 (UniProt Q9NQH7)
inactive: erlotinib 0.011 | [1] -0.016 | [2] 0.006 | [3] 0.018 | [4] 0.019 | [5] -0.002 | [6] 0.017 | [7] -0.061 | [8] 0.058 | IRAK-1-4 Inhibitor I -0.001

YTHDF2 (UniProt Q9Y5A9)
inactive: erlotinib -0.023 | [1] -0.015 | [2] 0.021 | [3] 0.001 | [4] 0.106 | [5] -0.153 | [6] 0.007 | [7] 0.002 | [8] 0.011 | IRAK-1-4 Inhibitor I 0.094

2 entries picked at random from the list so far:
ZFYVE28 (UniProt Q9HCC9)
inactive: erlotinib -0.026 | [1] -0.201 | [2] 0.012 | [3] 0.021 | [4] -0.157 | [5] -0.026 | [6] -0.056 | [7] 0.055 | [8] 0.033 | IRAK-1-4 Inhibitor I 0.04

XRCC6 (UniProt P12956)
inactive: erlotinib 0.004 | [1] -0.02 | [2] -0.016 | [3] -0.01 | [4] 0.009 | [5] 0.007 | [6] -0.014 | [7] -0.003 | [8] 0.008 | IRAK-1-4 Inhibitor I -0.006

(continued)

YTHDF1 (UniProt Q9BYJ9)
inactive: erlotinib 0 | [1] -0.054 | [2] -0.033 | [3] -0.072 | [4] 0.106 | [5] -0.087 | [6] -0.059 | [7] 0.041 | [8] -0.02 | IRAK-1-4 Inhibitor I 0.084

XPO4 (UniProt Q9C0E2)
inactive: erlotinib 0.006 | [1] 0 | [2] 0.009 | [3] -0.024 | [4] -0.014 | [5] -0.015 | [6] -0.007 | [7] 0.013 | [8] 0.002 | IRAK-1-4 Inhibitor I 0

ZEB2 (UniProt O60315)
inactive: erlotinib -0.055 | [1] -0.087 | [2] 0.014 | [3] -0.145 | [4] 0.095 | [5] -0.028 | [6] -0.017 | [7] -0.053 | [8] -0.055 | IRAK-1-4 Inhibitor I 0.049

XPO5 (UniProt Q9HAV4)
inactive: erlotinib 0.026 | [1] 0.024 | [2] -0.02 | [3] 0.005 | [4] 0 | [5] -0.003 | [6] -0.044 | [7] 0.008 | [8] 0.035 | IRAK-1-4 Inhibitor I -0.015

ZFYVE9 (UniProt O95405)
inactive: erlotinib 0.015 | [1] -0.154 | [2] 0.045 | [3] 0.034 | [4] 0.027 | [5] 0.005 | [6] -0.003 | [7] -0.051 | [8] -0.051 | IRAK-1-4 Inhibitor I 0.134

YOD1 (UniProt Q5VVQ6)
inactive: erlotinib 0.026 | [1] 0.024 | [2] -0.015 | [3] 0.001 | [4] -0.029 | [5] -0.026 | [6] 0.021 | [7] -0.049 | [8] 0.009 | IRAK-1-4 Inhibitor I 0.001

ZCCHC3 (UniProt Q9NUD5)
inactive: erlotinib -0.029 | [1] 0.017 | [2] -0.042 | [3] -0.003 | [4] 0.02 | [5] -0.001 | [6] -0.006 | [7] 0.017 | [8] 0.021 | IRAK-1-4 Inhibitor I -0.004

YEATS2 (UniProt Q9ULM3)
inactive: erlotinib 0.064 | [1] 0.028 | [2] 0.056 | [3] 0.076 | [4] -0.061 | [5] 0.003 | [6] -0.162 | [7] -0.133 | [8] 0.056 | IRAK-1-4 Inhibitor I 0.014

ZBTB33 (UniProt Q86T24)
inactive: erlotinib 0 | [1] 0.012 | [2] 0.101 | [3] 0.062 | [4] 0.144 | [5] -0.025 | [6] -0.101 | [7] -0.053 | [8] 0.068 | IRAK-1-4 Inhibitor I -0.042

YBX3 (UniProt P16989)
inactive: erlotinib 0.002 | [1] -0.089 | [2] 0.014 | [3] -0.012 | [4] 0.004 | [5] -0.013 | [6] -0.007 | [7] 0.016 | [8] -0.012 | IRAK-1-4 Inhibitor I 0

ZFP91 (UniProt Q96JP5)
inactive: erlotinib -0.054 | [1] -0.169 | [2] 0.006 | [3] 0.064 | [4] 0.004 | [5] -0.028 | [6] 0.077 | [7] 0 | [8] -0.004 | IRAK-1-4 Inhibitor I 0.025

ZC3H8 (UniProt Q8N5P1)
inactive: erlotinib -0.003 | [1] 0.024 | [2] -0.02 | [3] -0.031 | [4] -0.056 | [5] 0.012 | [6] 0.009 | [7] 0.03 | [8] -0.002 | IRAK-1-4 Inhibitor I -0.013

YWHAZ (UniProt P63104)
inactive: erlotinib -0.025 | [1] -0.028 | [2] 0.002 | [3] -0.014 | [4] -0.013 | [5] -0.014 | [6] 0.039 | [7] 0.011 | [8] -0.03 | IRAK-1-4 Inhibitor I -0.025

XRN1 (UniProt Q8IZH2)
inactive: erlotinib 0.047 | [1] 0.056 | [2] -0.017 | [3] 0.055 | [4] 0.133 | [5] 0.036 | [6] -0.034 | [7] 0.013 | [8] -0.127 | IRAK-1-4 Inhibitor I 0.019

ZFR (UniProt Q96KR1)
inactive: erlotinib -0.009 | [1] -0.032 | [2] -0.001 | [3] 0.031 | [4] -0.016 | [5] -0.035 | [6] -0.053 | [7] -0.024 | [8] -0.019 | IRAK-1-4 Inhibitor I 0.012

ZBTB8OS (UniProt Q8IWT0)
inactive: erlotinib -0.06 | [1] 0.031 | [2] -0.056 | [3] 0.01 | [4] 0.008 | [5] -0.019 | [6] 0.016 | [7] 0.05 | [8] 0.024 | IRAK-1-4 Inhibitor I -0.001

YWHAE (UniProt P62258)
inactive: erlotinib -0.007 | [1] -0.018 | [2] 0.022 | [3] -0.008 | [4] -0.002 | [5] 0.004 | [6] 0.007 | [7] 0.003 | [8] 0.001 | IRAK-1-4 Inhibitor I -0.006

ZFPL1 (UniProt O95159)
inactive: erlotinib -0.004 | [1] -0.017 | [2] -0.025 | [3] 0.161 | [4] -0.086 | [5] -0.013 | [6] -0.048 | [7] -0.028 | [8] 0.02 | IRAK-1-4 Inhibitor I 0.085

XXYLT1 (UniProt Q8NBI6)
inactive: erlotinib -0.001 | [1] 0.047 | [2] -0.022 | [3] 0.118 | [4] 0.019 | [5] -0.032 | [6] -0.039 | [7] 0.006 | [8] 0.021 | IRAK-1-4 Inhibitor I 0.005

ZBTB10 (UniProt Q96DT7)
inactive: erlotinib 0.034 | [1] -0.003 | [2] -0.013 | [3] 0.061 | [4] -0.02 | [5] 0.021 | [6] -0.08 | [7] -0.115 | [8] -0.032 | IRAK-1-4 Inhibitor I -0.011

XRCC4 (UniProt Q13426)
inactive: erlotinib -0.027 | [1] -0.023 | [2] -0.003 | [3] -0.002 | [4] 0.013 | [5] -0.015 | [6] 0.014 | [7] 0.004 | [8] -0.01 | IRAK-1-4 Inhibitor I 0.022

YARS (UniProt P54577)
inactive: erlotinib 0.012 | [1] 0.025 | [2] -0.014 | [3] -0.007 | [4] 0.001 | [5] 0.001 | [6] -0.014 | [7] -0.001 | [8] -0.002 | IRAK-1-4 Inhibitor I -0.001
